Patent US20240287168A1 (SHANGHAI JEMINCARE PHARMACEUTICAL, published 2024)
No constants are given. Whether binding was seen depends on the method and setting. Some results given as binding are weak or reduced against the parent protein; the word gives no strength.

Target: T1, Mouse VEGF-Bio (mouse) (UniProt Q00731)
T1 sequence (biotinylated (site not stated), looked up): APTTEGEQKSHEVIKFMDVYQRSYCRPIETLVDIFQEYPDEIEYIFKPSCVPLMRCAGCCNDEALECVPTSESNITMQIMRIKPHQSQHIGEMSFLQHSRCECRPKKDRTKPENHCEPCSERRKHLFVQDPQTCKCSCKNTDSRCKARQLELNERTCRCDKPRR
Assay: flow cytometry, yeast-displayed VHH

B1: Y20A6, anti-human VEGF165 single domain heavy chain antibody clone displayed on yeast (VHH, not shown: large carriers; small tags and cut ends)
VHH: AVQLVESGGGLVQAGGSARLSCAASGSTSDIVSMAWYRQAPGKERDLVAAVFAEDWRYVEDSVRGRFTISRDNTKNTVDLQMNNLKPEDTAIYYCNVRLRITDERRRERLDYWGQGTQVTVSS
B1 was tested. Which binding did it give?
The binding was “binds”.
